Data taken from PMC7061876.
Construct, isoform or probe ends are uncertain for at least one entry.

Test system: His-SlPIF4 (Solanum lycopersicum)
Assay: EMSA
Details: LightShift Chemiluminescent EMSA kit binding buffer (composition and pH not given), 20 min at room temperature; 6% native PAGE in Tris-glycine, 100 V; recombinant protein; protein details: His (pET-32a vector); label: biotin

Sequence	binding result
ATCACGTGTCACGTGGTTAAA (double strand) [GAI4-G1/2-wt]	binds
CTCAATTTTACACGTGTGTCCGCCTA (double strand) [CBF1-G2-wt]	binds
